{"source": "the supplement of paper PMC12764529", "key": {"[1]": {"test": "folding stability dG unfold from trypsin proteolysis; higher = more stable", "method_in_brief": "(§1)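 Designed mini-proteins (under 80 residues, no cysteine) in a PA-tagged cDNA display construct were digested with trypsin and chymotrypsin. Each protease was used at 11 concentrations (threefold dilutions) plus a no-protease condition, followed by sequencing. K50 was inferred by Bayesian fitting of sequencing counts, and unfolding free energy was derived against a sequence-predicted unfolded-state K50 and a shared folded-state K50, per protease or combined. Only designs with AlphaFold2 dimer inter-PAE above 15 were kept.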"}, "[2]": {"test": "folding stability dG unfold from chymotrypsin proteolysis; higher = more stable", "method_in_brief": "as §1"}, "[3]": {"test": "folding stability dG unfold (combined trypsin and chymotrypsin); higher = more stable", "method_in_brief": "as §1"}}, "note": "± gives the half width of the 95% confidence interval. For many entries, trypsin and chymotrypsin gave values far apart.", "data": [{"sequence": "SAGGSAGGSAGGKPVKLEISFDKETNTITIKAVDEENKTVTETTIKVTFLPPPPPPPPKSAGGSAGGSAGGS [r10_331_TrROS_Hall]", "values": [{"measurement": "folding stability dG unfold", "setting": "[1]", "result": "1.09 ± 0.12", "unit": "kcal/mol"}, {"measurement": "folding stability dG unfold", "setting": "[2]", "result": "2.14 ± 0.37", "unit": "kcal/mol"}, {"measurement": "folding stability dG unfold", "setting": "[3]", "result": "2.03 ± 0.48", "unit": "kcal/mol"}]}, {"sequence": "KTKTIVINAKDLTEEQLRELLKKLGVSEEDVEVSEDGKTVVIKIDGVTIVIVASPPKPVVKPDDPEAKKAAS [r1_57_TrROS_Hall]", "values": [{"measurement": "folding stability dG unfold", "setting": "[1]", "result": "1.27 ± 0.051", "unit": "kcal/mol"}, {"measurement": "folding stability dG unfold", "setting": "[2]", "result": "1.75 ± 0.085", "unit": "kcal/mol"}, {"measurement": "folding stability dG unfold", "setting": "[3]", "result": "1.61 ± 0.12", "unit": "kcal/mol"}]}, {"sequence": "SADLAAELEEGGFVVTITETVVSVTPQTLEKDSFVVEKDVVTTITVTPPPVAPPPPDPANLRDAAGAPVSAG [r14_569_JUSTAS]", "values": [{"measurement": "folding stability dG unfold", "setting": "[1]", "result": "-0.0411 ± 0.041", "unit": "kcal/mol"}, {"measurement": "folding stability dG unfold", "setting": "[2]", "result": "1.01 ± 0.023", "unit": "kcal/mol"}, {"measurement": "folding stability dG unfold", "setting": "[3]", "result": "0.798 ± 0.084", "unit": "kcal/mol"}]}, {"sequence": "SAGGMTPSVLSNLSEEERKEAVRDFIIEFIKKAFPNVPEDFSVEEVPVLVYDLKTGKLFEVTVHLEGKSAGG [r13_555_TrMRF]", "values": [{"measurement": "folding stability dG unfold", "setting": "[1]", "result": "1.19 ± 0.083", "unit": "kcal/mol"}, {"measurement": "folding stability dG unfold", "setting": "[2]", "result": "2.16 ± 0.1", "unit": "kcal/mol"}, {"measurement": "folding stability dG unfold", "setting": "[3]", "result": "1.73 ± 0.15", "unit": "kcal/mol"}]}, {"sequence": "SAGGSAGGSAGGEVIEIELPGKTKEEIEEAIKKLPENYKIEIKKDENGRIRVRIFRKEDLSAGGSAGGSAGG [r7_662_TrROS_Hall]", "values": [{"measurement": "folding stability dG unfold", "setting": "[1]", "result": "1.6 ± 0.15", "unit": "kcal/mol"}, {"measurement": "folding stability dG unfold", "setting": "[2]", "result": "1.5 ± 0.17", "unit": "kcal/mol"}, {"measurement": "folding stability dG unfold", "setting": "[3]", "result": "1.44 ± 0.42", "unit": "kcal/mol"}]}, {"sequence": "SAGGSAMPDMTAEELAAEVAKKLPPGEKVLIKIRNKNGETKTFELGEDISDLPADEVTEIEIEVLPSAGGSA [r15_50_TrROS_Hall]", "values": [{"measurement": "folding stability dG unfold", "setting": "[1]", "result": "0.248 ± 0.073", "unit": "kcal/mol"}, {"measurement": "folding stability dG unfold", "setting": "[2]", "result": "1.05 ± 0.036", "unit": "kcal/mol"}, {"measurement": "folding stability dG unfold", "setting": "[3]", "result": "0.781 ± 0.054", "unit": "kcal/mol"}]}, {"sequence": "SAGGSAGGSAMPENMKVIEIEINGKKYKIVESKDGKLYIFEYDKKTKKVEVRTITLEELLSLSAGGSAGGSA [r18_247_TrROS_Hall]", "values": [{"measurement": "folding stability dG unfold", "setting": "[1]", "result": "2.21 ± 0.082", "unit": "kcal/mol"}, {"measurement": "folding stability dG unfold", "setting": "[2]", "result": "4.66 ± 0.12", "unit": "kcal/mol"}, {"measurement": "folding stability dG unfold", "setting": "[3]", "result": "4.2 ± 0.2", "unit": "kcal/mol"}]}, {"sequence": "SAGGMTLDQLKHALRHKKMQIHEPNPNGWYVTFQNPDGKPPTFPVKSDDELRDILRDAPGFEVEVQPVSAGG [r13_600_TrROS]", "values": [{"measurement": "folding stability dG unfold", "setting": "[1]", "result": "-0.0886 ± 0.17", "unit": "kcal/mol"}, {"measurement": "folding stability dG unfold", "setting": "[2]", "result": "0.84 ± 0.16", "unit": "kcal/mol"}, {"measurement": "folding stability dG unfold", "setting": "[3]", "result": "0.608 ± 0.2", "unit": "kcal/mol"}]}, {"sequence": "SAGGSAGGSAKIRLIFKTEEEARKAIEALLPEGAKAKIKVEKRKDGKKYVVVEIEFKEEEESAGGSAGGSAG [r3_87_TrROS_Hall]", "values": [{"measurement": "folding stability dG unfold", "setting": "[1]", "result": "3.58 ± 0.24", "unit": "kcal/mol"}, {"measurement": "folding stability dG unfold", "setting": "[2]", "result": "3.79 ± 0.23", "unit": "kcal/mol"}, {"measurement": "folding stability dG unfold", "setting": "[3]", "result": "3.57 ± 0.21", "unit": "kcal/mol"}]}, {"sequence": "SAGGKKKKLVIKDKKTNKYYEIENAKEIVKIEKVKGKDGKTYYVIYFKKTKKKIVIKTKEDLEKALKSAGGS [r8_206_TrROS_Hall]", "values": [{"measurement": "folding stability dG unfold", "setting": "[1]", "result": "1.26 ± 0.24", "unit": "kcal/mol"}, {"measurement": "folding stability dG unfold", "setting": "[2]", "result": "1.18 ± 0.38", "unit": "kcal/mol"}, {"measurement": "folding stability dG unfold", "setting": "[3]", "result": "1.23 ± 0.29", "unit": "kcal/mol"}]}, {"sequence": "SAGGSAGGSAGEPEYVRVRIRVRRRVRNKETGKWEEKEVELTLVFPSKEEALKALEELGLSAGGSAGGSAGG [r11_984_TrROS_Hall]", "values": [{"measurement": "folding stability dG unfold", "setting": "[1]", "result": "3.99 ± 0.083", "unit": "kcal/mol"}, {"measurement": "folding stability dG unfold", "setting": "[2]", "result": "4.049 ± 0.037", "unit": "kcal/mol"}, {"measurement": "folding stability dG unfold", "setting": "[3]", "result": "4.02 ± 0.051", "unit": "kcal/mol"}]}, {"sequence": "SAGGSAGGSAEKEYYVAKVEYDPATGKYYAYIYRKDGKYVVKVEWDDPEKPEEAVKKAIEEKSAGGSAGGSA [r18_479_TrMRF]", "values": [{"measurement": "folding stability dG unfold", "setting": "[1]", "result": "1.52 ± 0.069", "unit": "kcal/mol"}, {"measurement": "folding stability dG unfold", "setting": "[2]", "result": "4.77 ± 0.18", "unit": "kcal/mol"}, {"measurement": "folding stability dG unfold", "setting": "[3]", "result": "4.51 ± 0.18", "unit": "kcal/mol"}]}, {"sequence": "SAGGNVQISVEETDGGLYIQLTFRMPDPDPIKSFIENLGLPIKPTKIEPQRDPDNGREWVHATFRLPSAGGS [r16_699_TrROS]", "values": [{"measurement": "folding stability dG unfold", "setting": "[1]", "result": "2.35 ± 0.17", "unit": "kcal/mol"}, {"measurement": "folding stability dG unfold", "setting": "[2]", "result": "5.16 ± 0.22", "unit": "kcal/mol"}, {"measurement": "folding stability dG unfold", "setting": "[3]", "result": "4.49 ± 0.44", "unit": "kcal/mol"}]}, {"sequence": "SAGGSAGGSAGTLKLTLEVTVTRLYRLPDGSGSLVAETVRVRVEVELEVDELDEDGRLLLSAGGSAGGSAGG [r11_558_TrROS_Hall]", "values": [{"measurement": "folding stability dG unfold", "setting": "[1]", "result": "3.08 ± 0.14", "unit": "kcal/mol"}, {"measurement": "folding stability dG unfold", "setting": "[2]", "result": "3.269 ± 0.024", "unit": "kcal/mol"}, {"measurement": "folding stability dG unfold", "setting": "[3]", "result": "3.18 ± 0.07", "unit": "kcal/mol"}]}, {"sequence": "SAGGSSYSVAQSPGPARLYSVPQPDGRVVEVDVEELPGGLLRVRVPDDPVPRLFPASLSLADIVSLSAGGSA [r2_338_JUSTAS]", "values": [{"measurement": "folding stability dG unfold", "setting": "[1]", "result": "0.644 ± 0.02", "unit": "kcal/mol"}, {"measurement": "folding stability dG unfold", "setting": "[2]", "result": "0.933 ± 0.046", "unit": "kcal/mol"}, {"measurement": "folding stability dG unfold", "setting": "[3]", "result": "0.866 ± 0.032", "unit": "kcal/mol"}]}, {"sequence": "SPPVAAAKKLAEELNAEKVEVKVEKRAEPDGPYEFYVAEARLYVPEEGKVYRVRIRFYPNGEFEIEIEPESA [r9_724_TrMRF]", "values": [{"measurement": "folding stability dG unfold", "setting": "[1]", "result": "1.4 ± 0.17", "unit": "kcal/mol"}, {"measurement": "folding stability dG unfold", "setting": "[2]", "result": "3.53 ± 0.1", "unit": "kcal/mol"}, {"measurement": "folding stability dG unfold", "setting": "[3]", "result": "3.05 ± 0.2", "unit": "kcal/mol"}]}, {"sequence": "SAGGSAGGSAKIKKIEIEKTKDGKKYKIRIEVDGKEYEIEVESLEEALKLAEELNLEVEIESAGGSAGGSAG [r3_67_TrROS_Hall]", "values": [{"measurement": "folding stability dG unfold", "setting": "[1]", "result": "1.99 ± 0.097", "unit": "kcal/mol"}, {"measurement": "folding stability dG unfold", "setting": "[2]", "result": "4.12 ± 0.076", "unit": "kcal/mol"}, {"measurement": "folding stability dG unfold", "setting": "[3]", "result": "3.64 ± 0.14", "unit": "kcal/mol"}]}, {"sequence": "SAGGSAGGSAGGSVSIAREALEEKGEPVVIRVRNADGEEEDVVLPDDPEDIPGKEVVEVSSAGGSAGGSAGG [r7_998_TrMRF]", "values": [{"measurement": "folding stability dG unfold", "setting": "[1]", "result": "-0.381 ± 0.13", "unit": "kcal/mol"}, {"measurement": "folding stability dG unfold", "setting": "[2]", "result": "1.78 ± 0.03", "unit": "kcal/mol"}, {"measurement": "folding stability dG unfold", "setting": "[3]", "result": "1.34 ± 0.049", "unit": "kcal/mol"}]}, {"sequence": "SAGGSAGGSAGGAPPPVEIEIEVVVRGPDGRLYAFRARATYDPETDELTIEIEVRELPPSAGGSAGGSAGGS [r10_1164_TrROS_Hall]", "values": [{"measurement": "folding stability dG unfold", "setting": "[1]", "result": "2.25 ± 0.1", "unit": "kcal/mol"}, {"measurement": "folding stability dG unfold", "setting": "[2]", "result": "4.34 ± 0.17", "unit": "kcal/mol"}, {"measurement": "folding stability dG unfold", "setting": "[3]", "result": "3.96 ± 0.22", "unit": "kcal/mol"}]}, {"sequence": "SAGGSAGGSAGEVTVPAVVPPDAVPEVVEAVERLGARAEVEWDPETGLYRVNITFDGEVGSAGGSAGGSAGG [r11_1043_TrMRF]", "values": [{"measurement": "folding stability dG unfold", "setting": "[1]", "result": "-0.00326 ± 0.067", "unit": "kcal/mol"}, {"measurement": "folding stability dG unfold", "setting": "[2]", "result": "0.901 ± 0.06", "unit": "kcal/mol"}, {"measurement": "folding stability dG unfold", "setting": "[3]", "result": "0.604 ± 0.07", "unit": "kcal/mol"}]}, {"sequence": "SKKTLTFKNPETGVTVTITFDEETGTITITVTLPNGETVTAEMEVKDGKITITLYNKNGEKVAEFEFELPSA [r9_665_TrROS_Hall]", "values": [{"measurement": "folding stability dG unfold", "setting": "[1]", "result": "2.91 ± 0.59", "unit": "kcal/mol"}, {"measurement": "folding stability dG unfold", "setting": "[2]", "result": "5.12 ± 0.33", "unit": "kcal/mol"}, {"measurement": "folding stability dG unfold", "setting": "[3]", "result": "5.12 ± 0.49", "unit": "kcal/mol"}]}]}
